Experimental data taken from US20060183702A1.
Results are given in words; binding and its absence hold for the method and conditions named. Some binding calls cover weakened binding; strength is not graded here. Sequences can lack the tags named with a protein.

Amino acid sequences for entries named in this document (tags omitted). Residues count along the entry.
UniProt P07359, residues 17-652: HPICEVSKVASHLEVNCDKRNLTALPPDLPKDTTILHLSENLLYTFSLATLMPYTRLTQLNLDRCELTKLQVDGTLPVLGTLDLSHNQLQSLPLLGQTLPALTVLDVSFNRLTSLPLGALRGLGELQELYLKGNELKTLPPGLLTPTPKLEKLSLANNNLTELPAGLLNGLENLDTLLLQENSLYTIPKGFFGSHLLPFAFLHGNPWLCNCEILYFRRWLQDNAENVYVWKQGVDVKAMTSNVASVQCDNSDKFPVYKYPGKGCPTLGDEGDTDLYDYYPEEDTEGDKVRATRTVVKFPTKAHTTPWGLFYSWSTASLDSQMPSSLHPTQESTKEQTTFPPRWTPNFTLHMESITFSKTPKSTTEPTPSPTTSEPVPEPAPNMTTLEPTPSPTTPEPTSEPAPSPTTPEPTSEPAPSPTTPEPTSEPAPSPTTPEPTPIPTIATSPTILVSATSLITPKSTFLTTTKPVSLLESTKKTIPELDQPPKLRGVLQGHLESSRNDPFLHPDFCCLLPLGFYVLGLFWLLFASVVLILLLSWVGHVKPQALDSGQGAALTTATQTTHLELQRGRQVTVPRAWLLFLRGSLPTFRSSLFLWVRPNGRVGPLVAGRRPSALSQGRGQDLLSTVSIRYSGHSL

Target: gpIb receptor on lyophilized human platelets (human) (UniProt P07359)
Assay: flow cytometry on lyophilized human platelets with botrocetin; anti-poly-His antibody and PE secondary antibody

B1: 6-Histidine-tagged rabbit von Willebrand Factor A1 domain (ligand)
chain: MGHHHHHHEPPLHDFYWSNLMDLVFLLDGSAQLSEAEFGVLKAFVVSVMERLHISQKRIRVAVVEYHDGSHSYISLKDRKRPSELRRIASQVKYAGGPVASTSEVLKYTLFHIFSNVDRPEASRIALLLSASQETPRMVRNLVRYAQGLKKEKVIVIPVGIGPHVSLRQIHLIEKQAPENKAFVLSGVDELEQRRDEIISYLCDLGPEAPVPT
In the case of B1, the binding is reported as “binds”.
